Source: PubChem BioAssay AID758 (NMMLSC, 2007)
Hit rate of the full screen: of about 190,000 compounds, about 110 (0.058%) were called active. The shares of active, inactive and inconclusive entries below differ from those in the screen.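 How the source made its calls: active means fluorescent GTP binding to Rab7 beads changed by at least 20 points from the 100% baseline, either direction, mostly lower; inconclusive means compound itself probably fluorescent, or too few beads counted; inactive means the rest.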

Tested on: Rab7 GTPase wild type (dog), Bodipy-FL-GTP binding
Assay: modulators of GTP binding to Rab7, primary screen, biochemical, wildtype, multiplex bead flow cytometry (AID 758);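 further: median green fluorescence of bound Bodipy-FL-GTP per Rab7 bead population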
Settings: GST-Rab7 beads, fluorescent GTP binding, at 10 µM, actives lie on both sides, untreated = 100%, excess cold GTP = 0%

Structure (SMILES) | GTP binding activity (percent of control)
O=c1c2c3c(sc2n(CCN2CCOCC2)c(=O)n1Cc1ccco1)CCCCC3 | inconclusive: 102%
O=c1cc(CSc2nnnn2-c2ccccc2)nc2sccn12 | inconclusive: 94%
CCCC(=O)n1nc(-c2cccnc2)nc1NCc1ccccc1 | inactive: 95%
CC(=O)c1c(C)[nH]c(C(=O)N2CCc3ccccc3C2)c1C | inconclusive: 113%
CCCC/C(O)=C1\C(=O)CC(C)(C)CC1=NCCCCCC(=O)O | inconclusive: 89%
COc1ccc(-c2nnn(CC(=O)NCc3ccc4c(c3)OCO4)n2)cc1OC | inconclusive: 91%
COc1ccc(/C=C2\N=C(SC)SC2=O)cc1OC | active: 64%
CCOc1ccc(NC(=S)N(CC)Cc2ccccc2)cc1 | inactive: 94%
O=S(=O)(Nn1cnnc1)c1ccc(F)cc1 | inactive: 101%
COc1cc(C(=O)OCC(=O)Nc2cc(C)on2)cc(OC)c1OC | inconclusive: 98%
CC(=O)N1CCc2cc(S(=O)(=O)NC(C(=O)NCc3ccccc3)C(C)C)ccc21 (centres undefined) | inconclusive: 104%
Cc1ccc(S(=O)(=O)N2CCN(c3nc(C)nc4sc5c(c34)CCC(C)C5)CC2)cc1 (centres undefined) | inconclusive: 91%
CCN(CC)c1ccc(NS(=O)(=O)c2ccc(OC)cc2)cc1 | inactive: 106%
O=C(NCc1n[nH]c(=S)n1-c1ccc(Br)cc1)c1ccc(S(=O)(=O)N2CCOCC2)cc1 | inactive: 97%
CCOC(=O)c1c(NC(=O)C2CC(Cl)=CCC2C(=O)O)sc2c1CC(C)(C)OC2 (centres undefined) | inconclusive: 105%
COC(=O)C1CCN(CC(N)=O)CC1 | inconclusive: 105%
CC(C)C(C(=O)O)N1C(=O)/C(=C/c2cccn2C)SC1=S (centres undefined) | inconclusive: 96%
Cc1ccccc1OCC(=O)N1N=C(c2cccnc2)CC1(O)C(F)(F)F (centres undefined) | inconclusive: 98%
Cc1ccc(C=NCc2ccncc2)c(O)c1 | inconclusive: 106%
CC1=C2C(=O)OC(c3ccoc3)C2(C)CCC1 (centres undefined) | inconclusive: 101%

Structure (SMILES) | GTP binding activity (percent of control)
Cc1coc(=N)n1CC(=O)c1ccc(Cl)cc1 | inactive: 101%
Cn1c(SCC(=O)c2ccccc2)nnc1-c1ccco1 | inactive: 94%
CCOc1ccc2oc(-c3ccccc3)c(C(=O)N3CCN(C)CC3)c2c1 | inconclusive: 104%
COCCCNC(=O)C12CCC(C)(C(=O)C1)C2(C)C (centres undefined) | inconclusive: 92%
Cc1ccc(CN2CCN(Cc3ccc(OCCO)cc3)CC2CCO)o1 (centres undefined) | inactive: 104%
Cc1cc(C(=O)N=Nc2c(O)n(C(C)C)c3ccccc23)n[nH]1 | inactive: 97%
CCCCCc1nc(-c2nonc2N)no1 | inconclusive: 92%
O=C(CSc1nncs1)NC1CCCc2ccccc21 (centres undefined) | inconclusive: 95%
Cc1ccc(CNC(=O)C2CCC(CNc3nc(=S)[nH]c4ccccc34)CC2)cc1 (centres undefined) | inconclusive: 94%
CSc1ncccc1C(=O)Nc1nc2ccc(F)cc2s1 | inconclusive: 94%
COc1cc(Cl)c(C)cc1NC(=O)c1ccc(NS(=O)(=O)c2ccc(F)c(F)c2)cc1 | inconclusive: 94%
CN1OC(CC(=O)O)N(c2ccc(Cl)cc2)C1=O (centres undefined) | inconclusive: 101%
CCOC(=O)c1c2c3c(c(Cl)ccc3[nH]c1=O)C(=O)c1ccccc1-2 | inactive: 88%
O=C1c2ccccc2C(=O)N1CCCCN(C(=O)c1cc2ccccc2oc1=O)c1ccc(Cl)cc1 | active: 29%
CCOC(=O)c1c(NC(=O)CSc2nc3ccccc3c(=O)n2-c2ccccc2)sc(C(C)=O)c1C | inconclusive: 104%
COC(=O)CCc1sc(NC2CCCCC2)nc1-c1ccc(OC)cc1 | inconclusive: 98%
Cc1onc(-c2ccccc2Cl)c1C(=O)N1CCN(Cc2ccc3c(c2)OCO3)CC1 | inconclusive: 95%
Fc1cccc(Cl)c1CSc1ccc2nnc(-c3ccccn3)n2n1 | inconclusive: 93%
CC12CCC(C/C1=N/OC(=O)c1cccc([N+](=O)[O-])c1)C2(C)C (centres undefined) | inactive: 94%
CCCS(=O)(=O)NCCc1cc2c(C)ccc(C)c2[nH]c1=O | inconclusive: 94%

Structure (SMILES) | GTP binding activity (percent of control)
CCn1c(O)c(/C=C/C=C/C=Nc2ccccc2)sc1=S | inactive: 102%
CCOC(=O)CC1COCCN1Cc1cn(C)nc1-c1ccccc1F (centres undefined) | inactive: 105%
COc1ccccc1OP(=O)(O)Oc1ccccc1OC | inconclusive: 105%
CCCCN(C)C1CCN(C(=S)Nc2cccc(SC)c2)CC1 | inactive: 95%
CC(C)Cn1c(SCC(=O)N2CCN(C(=O)c3ccco3)CC2)nc2ccccc2c1=O | inconclusive: 96%
C=CCOc1c(OC)cc(Cl)cc1C1NC(=O)NC(C)=C1C(C)=O (centres undefined) | inconclusive: 88%
O=C(NNc1nc(-c2ccccc2)c2cc(Br)ccc2n1)c1ccc(S(=O)(=O)N2CCOCC2)cc1 | inactive: 84%
CCN(CC)S(=O)(=O)c1ccc(C(=O)NCc2cccs2)cc1 | inconclusive: 93%
Nn1c(SCc2nc3ccccc3[nH]2)nnc1-c1ccccc1 | inconclusive: 95%
Cc1c(N2C(=O)/C(=C\c3ccc(N(C)C)cc3)N(C)C2=S)c(=O)n(-c2ccccc2)n1C | inactive: 101%
CCc1ccc(OCC(=O)NC(NC(=S)Nc2ccc(Cl)cc2)C(Cl)(Cl)Cl)cc1 (centres undefined) | inactive: 101%
O=C(CNc1ccc2c(c1)OCO2)N/N=C\c1ccccc1Cl | inconclusive: 94%
CCOC(=O)C1=C(C)NC(C)=C(C(=O)OCC)C1C(=O)OCC(=O)N(C)C1CCS(=O)(=O)C1 (centres undefined) | inactive: 102%
CC(C)Cn1c(N)c(C(=O)COC(=O)[C@@H]2CCCN2C(=O)c2cccs2)c(=O)n(C)c1=O | inactive: 105%
Cc1ccc(C(=S)N2CCN(Cc3ccccc3)CC2)s1 | inconclusive: 92%
CN1CCNC(=O)C1CC(=O)NCCc1ccccc1F (centres undefined) | inactive: 102%
O=C(COC(=O)CCc1ccc(S(=O)(=O)N2CCOCC2)cc1)NC(=O)NC1CCCCC1 | inactive: 94%
O=C1S/C(=C/c2ccc(N3CCOCC3)o2)C(=O)N1Cc1ccc(F)cc1 | inconclusive: 107%
COc1cc(CNC(=O)c2cccc(COc3ccc(Cl)cc3)c2)cc(OC)c1 | inactive: 99%

Another view of some results above:

| Structure (SMILES) | GTP binding activity (percent of control) |
| --- | --- |
| CC12CCC(C/C1=N/OC(=O)c1cccc([N+](=O)[O-])c1)C2(C)C (centres undefined) | inactive: 94% |
| CCCS(=O)(=O)NCCc1cc2c(C)ccc(C)c2[nH]c1=O | inconclusive: 94% |
| CCn1c(O)c(/C=C/C=C/C=Nc2ccccc2)sc1=S | inactive: 102% |
| CCOC(=O)CC1COCCN1Cc1cn(C)nc1-c1ccccc1F (centres undefined) | inactive: 105% |
| COc1ccccc1OP(=O)(O)Oc1ccccc1OC | inconclusive: 105% |
